Results reported in patent US10086082B2, “Plant steroids and uses thereof” (DAVIDSON LOPEZ LLC, priority 2011, dated 2018).
Some entries share one result that the patent states for a list of compounds.

Test system: Caco-2 cells
Assay: Gene expression profiling of Caco-2 cells treated with compounds (Illumina HT-12 arrays, Volcano plots)
Type: cell-based, human
Conditions: 24 hours exposure, gene profiling experiments

With `CC[C@H](/C=C/[C@@H](C)[C@H]1CC[C@H]2[C@@H]3CC=C4C[C@@H](OC(=O)CCC(=O)OCC(=O)[C@@]5(O)CC[C@H]6[C@@H]7CCC8=CC(=O)C=C[C@]8(C)[C@H]7[C@@H](O)C[C@@]65C)CC[C@]4(C)[C@H]3CC[C@]12C)C(C)C` [SE-24, Stigmasterol Prednisolone Succinate Diester] the “upregulation of insulin induced gene 1” value was “over 10 fold”.
